The list does not hold the whole screen: it gathers tests that were run many times, whatever their T/C, doses with no T/C, and many T/C values between a quarter and a half above the control. Further doses and runs are listed elsewhere. T/C: endpoint of the treated group in % of that of the vehicle group. Some entries give survivors of the animals treated and no T/C: the source files T/C as zero there, which appears to mark a toxic dose or a test without result, not a measured value. Some survivor counts are full or nearly so, which does not show that the dose was tolerated: survival well below the control is almost never listed, so the zero probably covers shortened survival too. Survivors were counted at the toxicity check, usually on the fifth day, unless a day is given; later deaths do not show. Schedule codes are those of the source, read here as Q, the interval in days (D) or hours (H), X, the number of doses. Counts like (3×) count equal records among those shown. Some doses were run more than once; the results are listed from low to high. Where survival is the endpoint, this PubChem deposit counts one and a half times the control or more as active, and values a quarter to a half above the control carry no call in these data; other NCI protocols may use other cut-offs. Some T/C values are followed by the survivors on the day toxicity was checked, most often the fifth; without a count, all were alive then.
Test system: BDF1 mice, P388 leukemia ip, median survival T/C
Assay: NCI In Vivo Anticancer Drug Screen. Data for tumor model P388 Leukemia (intraperitoneal) in B6D2F1 (BDF1) mice
Settings: T/C endpoint: median survival time, higher T/C = longer survival
In short: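 Steps: implant the tumour, treat one group with compound and another with vehicle, record survival, then divide treated by control.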

[1] = dose: 32.0 mg/kg/injection, schedule: Q01DX001 (oral), vehicle: saline
[2] = dose: 128.0 mg/kg/injection, schedule: Q01DX001 (oral), vehicle: saline
[3] = dose: 512.0 mg/kg/injection, schedule: Q01DX001 (oral), vehicle: saline
[4] = dose: 400.0 mg/kg/injection, schedule: Q04DX003 (ip), vehicle: Klucel (hydroxypropylcellulose) (HPC)
[5] = dose: 100.0 mg/kg/injection, schedule: Q04DX003 (ip), vehicle: Klucel (hydroxypropylcellulose) (HPC)
[6] = dose: 12.5 mg/kg/injection, schedule: Q01DX009 (ip), vehicle: saline
[7] = dose: 50.0 mg/kg/injection, schedule: Q01DX009 (ip), vehicle: saline with Tween-80
[8] = dose: 100.0 mg/kg/injection, schedule: Q01DX009 (ip), vehicle: saline with Tween-80
[9] = dose: 200.0 mg/kg/injection, schedule: Q01DX009 (ip), vehicle: saline with Tween-80

S=P(N1CC1)(N1CC1)N1CC1
T/C (dose: 0.38 mg/kg/injection, schedule: Q01DX009 (ip), vehicle: saline): 134 % of control
T/C (dose: 0.75 mg/kg/injection, schedule: Q01DX009 (ip), vehicle: saline): 130 % of control
survivor count (dose: 0.75 mg/kg/injection, schedule: Q01DX010 (ip), vehicle: saline): 6 of 6
T/C (dose: 1.0 mg/kg/injection, schedule: Q01DX009 (ip), vehicle: saline, evaluated on day 30): 98, 111, 121, 224 % of control
T/C (dose: 1.0 mg/kg/injection, schedule: Q01DX009 (ip), vehicle: saline, evaluated on day 60): 104 % of control
T/C (dose: 1.5 mg/kg/injection, schedule: Q01DX009 (ip), vehicle: saline, evaluated on day 30): 130 % of control
T/C (dose: 1.5 mg/kg/injection, schedule: Q01DX009 (ip), vehicle: saline, evaluated on day 60): 127 % of control
T/C (dose: 2.0 mg/kg/injection, schedule: Q01DX001 (oral), vehicle: saline): 133 % of control [9 of 10 alive]
T/C (dose: 2.0 mg/kg/injection, schedule: Q01DX009 (ip), vehicle: saline, evaluated on day 30): 110, 111, 129, 214 % of control
T/C (dose: 2.0 mg/kg/injection, schedule: Q01DX009 (ip), vehicle: saline, evaluated on day 60): 130 % of control
T/C (dose: 3.0 mg/kg/injection, schedule: Q01DX009 (ip), vehicle: saline): 132 and 135 % of control
T/C (dose: 3.0 mg/kg/injection, schedule: Q01DX010 (ip), vehicle: saline): 130 and 131 % of control
survivor count (dose: 4.0 mg/kg/injection, schedule: Q01DX001 (oral), vehicle: saline): 5 of 10
T/C (dose: 4.0 mg/kg/injection, schedule: Q01DX009 (ip), vehicle: saline, evaluated on day 30): 146, 151 (2×), 205 % of control
T/C (dose: 4.0 mg/kg/injection, schedule: Q01DX009 (ip), vehicle: saline, evaluated on day 60): 193 % of control
survivor count (dose: 8.0 mg/kg/injection, schedule: Q01DX001 (oral), vehicle: saline): 2 of 10
T/C (dose: 8.0 mg/kg/injection, schedule: Q01DX009 (ip), vehicle: saline, evaluated on day 30): 91, 92, 100, 111 % of control
T/C (dose: 8.0 mg/kg/injection, schedule: Q01DX009 (ip), vehicle: saline, evaluated on day 60): 120 % of control
survivor count (dose: 12.0 mg/kg/injection, schedule: Q01DX009 (ip), vehicle: saline): 10 of 10 (2×)
survivor count (dose: 16.0 mg/kg/injection, schedule: Q01DX001 (oral), vehicle: saline): 2 of 10
survivor count (dose: 16.0 mg/kg/injection, schedule: Q01DX009 (ip), vehicle: saline): 8 of 10, 10 of 10, 6 of 6
survivor count (dose: 24.0 mg/kg/injection, schedule: Q01DX009 (ip), vehicle: saline): 0 of 10 and 10 of 10
survivor count [1]: 0 of 10
survivor count (dose: 32.0 mg/kg/injection, schedule: Q01DX009 (ip), vehicle: saline): 4 of 10, 5 of 10, 5 of 6
survivor count (dose: 64.0 mg/kg/injection, schedule: Q01DX001 (oral), vehicle: saline): 0 of 10
survivor count (dose: 64.0 mg/kg/injection, schedule: Q01DX009 (ip), vehicle: saline): 1 of 10, 6 of 10, 5 of 6
survivor count [2]: 1 of 10
survivor count (dose: 256.0 mg/kg/injection, schedule: Q01DX001 (oral), vehicle: saline): 1 of 10
survivor count [3]: 0 of 10

CC(C)=NNS(=O)(=O)c1ccc(C)cc1
survivor count [4]: 3 of 6

CCCCN1C(=O)C2CC=C3C=CN4C(C3C2C1=O)C1C(=O)N(CCCC)C(=O)C1C41CC(=O)N(CCCC)C1=O (stereo not given)
survivor count [4]: 6 of 6

CC(=O)N(C)C
survivor count (dose: 5400.0 mg/kg/injection, schedule: Q01DX010 (ip), vehicle: saline): 0 of 6

O=[N+]([O-])c1ccc2nccc(Cl)c2c1
survivor count [5]: 2 of 6

CCCCCCCCCC[N+](C)(C)CCC[N+](C)(C)CCCCCCCCCC
survivor count [6]: 3 of 6
survivor count [7]: 0 of 6
survivor count [8]: 0 of 6
survivor count [9]: 0 of 6

O=C1C(C2OC2c2ccccc2)CCCC1C1OC1c1ccccc1 (stereo not given)
survivor count [8]: 6 of 6

C/C(=C\c1ccc2c(c1)OCO2)[N+](=O)[O-]
T/C [5]: 136 % of control [5 of 6 alive]
T/C (dose: 200.0 mg/kg/injection, schedule: Q04DX003 (ip), vehicle: Klucel (hydroxypropylcellulose) (HPC)): 140 % of control
survivor count (dose: 300.0 mg/kg/injection, schedule: Q04DX003 (ip), vehicle: Klucel (hydroxypropylcellulose) (HPC)): 5 of 6
survivor count [4]: 3 of 6

Cc1ccc2c(c1)CC(C)([CH2][Hg][Cl])O2 (stereo not given)
survivor count (dose: 24.0 mg/kg/injection, schedule: Q04DX003 (ip), vehicle: Klucel (hydroxypropylcellulose) (HPC)): 0 of 6

O=C(NP(=O)(N1CC1)N1CC1)c1cc(I)ccc1I
T/C (dose: 8.0 mg/kg/injection, schedule: Q01DX009 (ip), vehicle: saline with Tween-80): 149 % of control
T/C [1]: 127 % of control
T/C [2]: 142 % of control [9 of 10 alive]
survivor count (dose: 128.0 mg/kg/injection, schedule: Q01DX009 (ip), vehicle: saline with Tween-80): 9 of 10
survivor count (dose: 128.0 mg/kg/injection, schedule: Q01DX009 (ip), vehicle: saline): 6 of 6
survivor count (dose: 256.0 mg/kg/injection, schedule: Q01DX009 (ip), vehicle: saline with Tween-80): 7 of 10
survivor count (dose: 256.0 mg/kg/injection, schedule: Q01DX009 (ip), vehicle: saline): 10 of 10 and 6 of 6
survivor count [3]: 8 of 10
survivor count (dose: 512.0 mg/kg/injection, schedule: Q01DX009 (ip), vehicle: saline with Tween-80): 6 of 10
survivor count (dose: 512.0 mg/kg/injection, schedule: Q01DX009 (ip), vehicle: saline): 10 of 10 and 6 of 6

FC(F)(F)C1=N/C(=C2\N=C(C(F)(F)F)N=C2Cl)C(Cl)=N1
survivor count [7]: 2 of 6
survivor count (dose: 50.0 mg/kg/injection, schedule: Q04DX003 (ip), vehicle: saline with Tween-80): 3 of 6

O=C1NC(c2ccccc2)C(=O)N1CCN(CCCl)CCCl (stereo not given)
T/C (dose: 6.25 mg/kg/injection, schedule: Q01DX009 (ip), vehicle: saline): 129 % of control
T/C [6]: 134 % of control
survivor count (dose: 50.0 mg/kg/injection, schedule: Q01DX009 (ip), vehicle: saline): 3 of 6

COC(=O)c1ccc(OP(=O)(N(C)C)N(C)C)cc1
T/C (dose: 6.25 mg/kg/injection, schedule: Q01DX009 (ip), vehicle: saline with Tween-80): 128 % of control
survivor count [7]: 0 of 6
survivor count [8]: 0 of 6
survivor count [9]: 0 of 6

Cc1ncc([N+](=O)[O-])n1CCn1nnc2c1CCCC2
T/C (dose: 100.0 mg/kg/injection, schedule: Q04DX003 (ip), vehicle: saline with Tween-80): 129 % of control

O=[N+]([O-])c1ccccc1O
survivor count [8]: 6 of 6
survivor count [9]: 6 of 6
survivor count (dose: 400.0 mg/kg/injection, schedule: Q01DX009 (ip), vehicle: saline with Tween-80): 4 of 6

CC(=O)Nc1ccc(C)c([N+](=O)[O-])c1
survivor count (dose: 400.0 mg/kg/injection, schedule: Q01DX009 (ip), vehicle: saline): 4 of 6

O=S(=O)(O)c1ccc2c(N=Nc3ccccc3[As](=O)(O)O)c(O)c(S(=O)(=O)O)cc2c1
T/C (dose: 88.0 mg/kg/injection, schedule: Q01DX009 (ip), vehicle: saline with Tween-80): 125 % of control
T/C (dose: 132.0 mg/kg/injection, schedule: Q01DX009 (ip), vehicle: saline with Tween-80): 140 % of control
T/C [9]: 145 % of control

Source: PubChem BioAssay AID328 (DTP/NCI, 2004)
